Data as given in PubChem BioAssay AID1259308 (NCATS, 2017)

Purpose: 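Genes whose loss raises luciferase production in HEK293 cells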 (primary screen)
Cells: human HEK293 embryonic kidney cells stably expressing firefly luciferase (HEK-CMV-Luc2-Hygro)
Knock-down reagent: single siRNA against human genes, 0.8 pmol siRNA per well
Timing: 72 h
Measured: 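Reporter luminescence and viable-cell signal on separate replicate plates, given as percent of non-targeting control and median/MAD z-scores, plus per-cell luciferase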
Direction: total luciferase, z-score and total luciferase, % of control: higher = more reporter protein produced; luciferase per cell, z-score: higher = more reporter output per viable cell; viable cells, % of control: higher = more viable cells
Active means: 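Active when the median/MAD z-score for overall luciferase is greater than 3; a gene was taken forward for validation with new siRNAs if at least two of its three siRNAs passed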
Calls: active = raised luciferase; inactive = no rise
The whole screen tested about 59,000 reagents; below is a part drawn at random. About 1,510 of all reagents (2.6%) were called active. 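Calls use total luciferase alone and ignore viability, so some active siRNAs may act by altering cell number.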 Reagents against one gene are numbered here.

| Target gene | reagent | total luciferase, z-score | total luciferase, % of control | luciferase per cell, z-score | viable cells, % of control | call |
| --- | --- | --- | --- | --- | --- | --- |
| OSCAR | 1 | -0.367 | 74.6 | -1.01 | 109 | inactive |
| OSCAR | 2 | 0.368 | 89.2 | 0.344 | 91 | inactive |
| OSCAR | 3 | -0.725 | 67.5 | -0.664 | 89.8 | inactive |
| CADPS | 1 | -0.196 | 78 | 0.255 | 81.5 | inactive |
| CADPS | 2 | 0.519 | 92.2 | 0.791 | 83.7 | inactive |
| CADPS | 3 | -1.3 | 56 | -0.773 | 76.7 | inactive |
| AKAP4 | 1 | 0.092 | 83.7 | -0.285 | 101 | inactive |
| AKAP4 | 2 | -0.383 | 74.3 | -0.994 | 108 | inactive |
| AKAP4 | 3 | -0.871 | 64.6 | -1.89 | 119 | inactive |
| ZBED3-AS1 | 1 | -0.168 | 78.5 | 0.609 | 74.8 | inactive |
| ZBED3-AS1 | 2 | 0.249 | 86.8 | 0.974 | 75.1 | inactive |
| ZBED3-AS1 | 3 | -1.32 | 55.7 | -0.761 | 76 | inactive |
| CLCA1 | 1 | -0.481 | 72.3 | -0.323 | 88 | inactive |
| CLCA1 | 2 | -1.65 | 49 | -1.17 | 74.6 | inactive |
| CLCA1 | 3 | 0.0467 | 82.8 | -0.707 | 111 | inactive |
| EEF1AKMT1 | 1 | -0.0374 | 81.1 | -0.515 | 104 | inactive |
| EEF1AKMT1 | 2 | 0.283 | 87.5 | -0.00547 | 97.9 | inactive |
| EEF1AKMT1 | 3 | 0.0794 | 83.5 | 0.321 | 85.7 | inactive |

The list goes on (3 carried over from the part before).
| Target gene | reagent | total luciferase, z-score | total luciferase, % of control | luciferase per cell, z-score | viable cells, % of control | call |
| --- | --- | --- | --- | --- | --- | --- |
| EEF1AKMT1 | 1 | -0.0374 | 81.1 | -0.515 | 104 | inactive |
| EEF1AKMT1 | 2 | 0.283 | 87.5 | -0.00547 | 97.9 | inactive |
| EEF1AKMT1 | 3 | 0.0794 | 83.5 | 0.321 | 85.7 | inactive |
| LLGL2 | 1 | -0.633 | 69.3 | -0.855 | 97 | inactive |
| LLGL2 | 2 | 0.534 | 92.5 | 0.696 | 86.1 | inactive |
| LLGL2 | 3 | 4.02 | 162 | 1.96 | 108 | active |
| SLA | 1 | 1.8 | 118 | 1.62 | 85.9 | inactive |
| SLA | 2 | 0.338 | 88.6 | 0.475 | 87.4 | inactive |
| SLA | 3 | 3.53 | 152 | 1.86 | 104 | active |
| BRD7 | 1 | -1.65 | 49.1 | -2.01 | 93.2 | inactive |
| BRD7 | 2 | 0.252 | 86.9 | 0.0281 | 96.4 | inactive |
| BRD7 | 3 | -0.0239 | 81.4 | -0.583 | 106 | inactive |
| ALX1 | 1 | 0.768 | 97.2 | 0.328 | 99.6 | inactive |
| ALX1 | 2 | -1.58 | 50.5 | -1.35 | 80.4 | inactive |
| ALX1 | 3 | -1.39 | 54.3 | -1.35 | 86.7 | inactive |
| UGGT1 | 1 | -1.21 | 57.7 | -0.191 | 67.8 | inactive |
| UGGT1 | 2 | -0.238 | 77.2 | 0.845 | 69 | inactive |
| UGGT1 | 3 | -0.506 | 71.8 | -0.229 | 85.2 | inactive |
| RABAC1 | 1 | 0.159 | 85 | -0.0176 | 95.5 | inactive |
| RABAC1 | 2 | 0.484 | 91.5 | 0.315 | 94.1 | inactive |
| RABAC1 | 3 | -1.05 | 61 | -0.649 | 80.8 | inactive |
| ODR4 | 1 | 0.82 | 98.2 | 0.737 | 90.4 | inactive |
| ODR4 | 2 | -1.26 | 56.8 | -1.12 | 85.3 | inactive |
| ODR4 | 3 | -0.566 | 70.6 | -1.05 | 104 | inactive |
